No constants are given. Whether binding was seen depends on the method and setting. Some results given as binding are weak or reduced against the parent protein; the word gives no strength.
Tests used:
[1] = molecular target: estrogen receptor ligand binding domain (yeast two-hybrid bait, liganded) (UniProt P03372); assay: yeast two-hybrid; wild type, against which the LCD2 mutant lost the interaction
[2] = molecular target: estrogen receptor ligand binding domain (yeast two-hybrid bait, liganded) (UniProt P03372); assay: yeast two-hybrid
[3] = molecular target: CBP(2058-2170) yeast two-hybrid bait (UniProt P45481); assay: yeast two-hybrid
[4] = molecular target: estrogen receptor ligand binding domain (yeast two-hybrid bait, liganded) (UniProt P03372); assay: yeast two-hybrid with the liganded estrogen receptor LBD (FIG. 3c)

Amino acid sequences for entries named in this document (tags omitted). A change or cut given only in a name is not applied to a line headed by its entry. Residues count along the entry.
UniProt P03372, residues 251-595: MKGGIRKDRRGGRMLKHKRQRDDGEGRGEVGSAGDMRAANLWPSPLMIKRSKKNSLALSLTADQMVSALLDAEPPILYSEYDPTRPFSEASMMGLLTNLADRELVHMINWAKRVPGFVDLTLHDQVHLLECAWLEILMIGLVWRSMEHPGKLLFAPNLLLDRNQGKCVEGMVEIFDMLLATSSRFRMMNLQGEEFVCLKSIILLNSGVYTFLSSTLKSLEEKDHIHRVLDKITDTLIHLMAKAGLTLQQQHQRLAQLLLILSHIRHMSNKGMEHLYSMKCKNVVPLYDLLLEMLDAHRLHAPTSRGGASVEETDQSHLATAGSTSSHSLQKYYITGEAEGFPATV
UniProt P45481, residues 2058-2170: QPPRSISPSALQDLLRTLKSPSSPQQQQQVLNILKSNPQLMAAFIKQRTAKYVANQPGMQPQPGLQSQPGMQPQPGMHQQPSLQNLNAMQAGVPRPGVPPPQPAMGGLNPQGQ
NCoA-1 nuclear receptor interaction domains (aa 635-760), yeast two-hybrid prey, wild type (P70365, residues 635-760): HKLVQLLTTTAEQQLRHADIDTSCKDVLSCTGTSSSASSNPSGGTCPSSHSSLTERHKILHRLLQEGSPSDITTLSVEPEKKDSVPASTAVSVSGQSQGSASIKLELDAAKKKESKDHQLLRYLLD
NCoA-1 smaller region lacking helical domain 3 (yeast two-hybrid prey) (P70365, residues 635-735): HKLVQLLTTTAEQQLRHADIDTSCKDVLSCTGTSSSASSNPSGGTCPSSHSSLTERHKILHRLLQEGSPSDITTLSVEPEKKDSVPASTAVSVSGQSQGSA
UniProt Q61026: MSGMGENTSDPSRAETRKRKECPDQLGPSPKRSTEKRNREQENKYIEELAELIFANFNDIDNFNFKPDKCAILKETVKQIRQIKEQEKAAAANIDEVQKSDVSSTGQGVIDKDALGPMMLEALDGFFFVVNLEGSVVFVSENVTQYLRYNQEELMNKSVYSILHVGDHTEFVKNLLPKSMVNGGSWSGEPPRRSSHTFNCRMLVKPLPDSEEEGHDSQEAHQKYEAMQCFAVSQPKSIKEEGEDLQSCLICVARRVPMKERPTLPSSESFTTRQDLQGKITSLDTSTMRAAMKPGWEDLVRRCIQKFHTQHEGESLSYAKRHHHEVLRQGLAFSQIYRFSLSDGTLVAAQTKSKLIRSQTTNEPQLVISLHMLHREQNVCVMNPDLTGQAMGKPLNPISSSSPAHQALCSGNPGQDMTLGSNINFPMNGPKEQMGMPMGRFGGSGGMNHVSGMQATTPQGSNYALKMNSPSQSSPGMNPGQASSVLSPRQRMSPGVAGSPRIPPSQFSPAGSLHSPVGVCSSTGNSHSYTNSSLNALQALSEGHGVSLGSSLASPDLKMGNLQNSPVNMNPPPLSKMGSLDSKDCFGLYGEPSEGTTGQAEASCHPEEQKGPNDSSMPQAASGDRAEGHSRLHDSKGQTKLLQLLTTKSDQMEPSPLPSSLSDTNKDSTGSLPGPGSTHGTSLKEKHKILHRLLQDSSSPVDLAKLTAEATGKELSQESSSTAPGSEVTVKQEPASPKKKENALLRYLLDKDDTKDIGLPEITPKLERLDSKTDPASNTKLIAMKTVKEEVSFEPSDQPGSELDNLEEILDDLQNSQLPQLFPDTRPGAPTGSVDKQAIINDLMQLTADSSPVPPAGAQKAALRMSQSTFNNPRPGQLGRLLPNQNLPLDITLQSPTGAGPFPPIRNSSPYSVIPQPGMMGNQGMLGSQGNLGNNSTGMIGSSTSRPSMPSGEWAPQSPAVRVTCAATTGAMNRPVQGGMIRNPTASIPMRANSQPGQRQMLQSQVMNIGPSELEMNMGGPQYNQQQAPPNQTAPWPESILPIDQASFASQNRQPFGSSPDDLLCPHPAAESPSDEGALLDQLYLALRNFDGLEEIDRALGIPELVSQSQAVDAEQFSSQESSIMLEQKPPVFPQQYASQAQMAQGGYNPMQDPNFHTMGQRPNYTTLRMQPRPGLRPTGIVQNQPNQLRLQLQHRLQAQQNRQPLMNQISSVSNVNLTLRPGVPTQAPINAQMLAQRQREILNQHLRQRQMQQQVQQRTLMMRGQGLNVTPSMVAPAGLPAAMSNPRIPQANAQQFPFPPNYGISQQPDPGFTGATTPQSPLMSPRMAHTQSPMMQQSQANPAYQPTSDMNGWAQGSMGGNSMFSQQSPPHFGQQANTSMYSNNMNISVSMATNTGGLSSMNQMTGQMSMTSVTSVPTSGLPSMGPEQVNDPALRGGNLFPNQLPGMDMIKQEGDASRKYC
UniProt O09000: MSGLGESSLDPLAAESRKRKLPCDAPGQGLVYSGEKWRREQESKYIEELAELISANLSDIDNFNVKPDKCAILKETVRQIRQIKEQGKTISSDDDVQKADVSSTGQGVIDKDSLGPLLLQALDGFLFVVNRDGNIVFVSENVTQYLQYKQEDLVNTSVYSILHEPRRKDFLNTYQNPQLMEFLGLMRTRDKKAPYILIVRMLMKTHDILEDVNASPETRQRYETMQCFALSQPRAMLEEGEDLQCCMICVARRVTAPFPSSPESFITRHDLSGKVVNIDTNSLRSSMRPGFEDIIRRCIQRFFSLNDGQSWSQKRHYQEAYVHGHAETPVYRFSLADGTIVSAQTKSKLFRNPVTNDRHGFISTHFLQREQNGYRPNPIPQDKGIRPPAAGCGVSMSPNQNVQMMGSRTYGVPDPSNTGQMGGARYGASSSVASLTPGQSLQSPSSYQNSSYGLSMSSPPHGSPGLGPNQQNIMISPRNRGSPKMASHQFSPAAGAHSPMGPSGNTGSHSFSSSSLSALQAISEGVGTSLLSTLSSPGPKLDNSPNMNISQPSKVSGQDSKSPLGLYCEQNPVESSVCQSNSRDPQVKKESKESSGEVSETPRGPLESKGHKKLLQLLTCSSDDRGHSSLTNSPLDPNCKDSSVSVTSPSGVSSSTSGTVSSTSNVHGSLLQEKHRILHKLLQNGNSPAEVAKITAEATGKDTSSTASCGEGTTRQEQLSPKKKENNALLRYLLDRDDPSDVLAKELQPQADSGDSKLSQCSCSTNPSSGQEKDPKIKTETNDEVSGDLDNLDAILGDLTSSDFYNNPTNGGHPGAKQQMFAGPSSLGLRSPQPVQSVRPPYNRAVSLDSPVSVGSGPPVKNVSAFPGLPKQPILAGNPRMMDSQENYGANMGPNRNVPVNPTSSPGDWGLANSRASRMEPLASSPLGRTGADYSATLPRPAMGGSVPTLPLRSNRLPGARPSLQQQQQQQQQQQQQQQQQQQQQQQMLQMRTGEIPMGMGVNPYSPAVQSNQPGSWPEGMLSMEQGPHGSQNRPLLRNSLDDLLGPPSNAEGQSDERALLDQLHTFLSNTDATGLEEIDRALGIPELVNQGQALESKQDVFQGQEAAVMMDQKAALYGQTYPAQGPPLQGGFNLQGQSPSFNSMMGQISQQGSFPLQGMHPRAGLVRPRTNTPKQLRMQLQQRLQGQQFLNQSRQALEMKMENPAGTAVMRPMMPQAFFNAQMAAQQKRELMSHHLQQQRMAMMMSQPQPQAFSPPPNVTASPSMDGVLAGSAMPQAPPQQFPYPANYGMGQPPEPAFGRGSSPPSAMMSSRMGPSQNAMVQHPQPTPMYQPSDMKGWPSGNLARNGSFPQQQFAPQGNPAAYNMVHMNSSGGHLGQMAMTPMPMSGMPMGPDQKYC

With “NCoA-1 nuclear receptor interaction domains (aa 635-760), yeast two-hybrid prey, wild type (from UniProt P70365 635-760)” the binding [1] was “binds”.

With “NCoA-1 smaller region lacking helical domain 3 (yeast two-hybrid prey) (from UniProt P70365 635-735)” the binding [2] was “binds”.

With “NCoA-2 regions comparable to the p/CIP interaction regions (yeast two-hybrid prey) (from UniProt Q61026 2-1462)” the binding [3] was “binds”.

In the case of “p/CIP aa 591-803 (yeast two-hybrid prey) (from UniProt O09000 591-803)”, the binding [4] is reported as “binds”.
